For one substance, binding results are on record in article PMC10753161.

This assay has as its target T1, StSN2 (endogenous, potato tuber) (potato (endogenous in tuber budding eyes)) (UniProt Q93X17).
T1 sequence: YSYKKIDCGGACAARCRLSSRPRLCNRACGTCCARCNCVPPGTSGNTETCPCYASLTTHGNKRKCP
Kind of assay: affinity purification with mass spectrometry; Co-IP/MS screen for proteins interacting with StSN2; sample and conditions not told.

No constants are given. Whether binding was seen depends on the method and setting. Binding seen in cells or lysates may run through a third protein. These calls come from enrichment with a bait or labelling near it, and not all partners need be listed.

In the case of “StBIN2 (endogenous, potato tuber) (enzyme)”, the binding result is given as “binds”.
